For some assays here: Strings that start with PEPTIDE1 are HELM notation: dots part the residues, brackets hold end groups and non-standard residues. Square brackets hold non-standard residues; d marks the D form. Peptide text beside a SMILES is read from it. * marks the point of attachment. X3 = O=C(CCCCCNCc1nc2c(sc3cc(Br)cnc32)c(=O)[nH]1)*
Experiments:
panel of 140 PKs = test: Kinase selectivity profiling, panel metrics; format: biochemical, human; settings: 1 µM compound; for Gini coefficient: 139 or 140 PKs; for hit rate: fraction of PKs with residual activity below 50%
Procedure: Kinase selectivity profiling was performed using the commercial service provided by the MRC PPU International Centre for Kinase Profiling (Dundee, UK) using a radiometric filter-binding assay. Kinases used for analysis were of human origin. The ATP concentration applied for inhibition measurements was at or below the ATP KM value of the particular PK. ARC-3125 and ARC-3126 were screened against 139 PKs, whereas compounds 1, 2, and 8 were screened against 140 PKs. The final total concentration of inhibitors in the selectivity panel was 1 µM. Residual activities were expressed as the percentage of retained activity compared to the control without inhibitor.
From the residual activities, values of the Gini coefficient and hit rate were calculated for each individual compound. The Gini coefficient is a single-value metric whose value for a specific inhibitor depends on the number and origin of the PKs in the panel, but also on concentration of the tested compound [70]. Hit rate is the number of kinases inhibited by over 50%.

[1] = general procedure: Fmoc solid-phase peptide synthesis; Rink amide 4-methylbenzhydrylamine resin
U2OS cells = test: Cellular uptake of fluorescent probes, live-cell microscopy; format: cell-based, human
Procedure: For studies of the general internalization properties of ARCs, the cells were seeded at the density of 12,000–25,000 cells per well onto an Ibidi μ-plate (96-well; Ibidi GmbH, Planegg, Germany). After 24 h incubation in growth medium, the cells were treated for 10 min, 30 min, or 1 h with dilutions of compounds 6, 7, 8, or ARC-2090 (5 μM, 2.5 μM, or 1 μM final concentration) in the phenol red-free DMEM/Ham’s F12 medium supplemented with 2% ccFBS and 2 mM glutamine. Next, cells were washed twice with PBS, and imaging medium (MEMO + Supplement A 1:100) was applied subsequently. Cells were imaged with Cytation 5 wide-field microscope (BioTek; Winooski, VT, USA) using 20× air objective and the following settings: for Cy5, 623 nm LED (intensity: 2) and Cy5 filter cube (685 nm) with 104 ms integration time and detector gain value of 2; for TAMRA, 523 nm LED (intensity: 7) and RFP filter cube (593 nm) with 252 ms integration time and detector gain value of 16; for bright-field, white LED with intensity 6, 186 ms integration time and detector gain value of 15. Four independent experiments were performed.

`N=C(N)NCCC[C@@H](NC(=O)CNC(=O)[C@@H](CCCNC(=N)N)NC(=O)[C@@H](CCCNC(=N)N)NC(=O)CCCCCCCNCc1nc2c(sc3ccc(Br)cc32)c(=O)[nH]1)C(=O)N[C@H](CCCCN)C(N)=O` [Compound 2, BBTP-Aoc-(D-Arg)2-Gly-D-Arg-D-Lys-NH2] gave a Gini coefficient (panel of 140 PKs) of 0.824 and a hit rate (panel of 140 PKs) of 0.079.
With BPTP-Aoc-(D-Arg)2-Gly-D-Arg-D-Lys-NH2 the “final HPLC purity” value ([1]; whole synthesis, 307 nm) was 96.1%.
For BBTP-Amt-(D-Arg)2-Gly-D-Arg-D-Lys-NH2, the “final HPLC purity” value ([1]; whole synthesis, 342 nm) was 97.5%.
`CN(C)c1ccc2c(c1)Oc1cc(N(C)C)ccc1C21OC(=O)c2cc(C(=O)NCCCC[C@@H](NC(=O)[C@@H](CCCNC(=N)N)NC(=O)CNC(=O)[C@@H](CCCNC(=N)N)NC(=O)[C@@H](CCCNC(=N)N)NC(=O)CCCCc3cn(Cc4nc5c(sc6ccc(Br)cc65)c(=O)[nH]4)nn3)C(N)=O)ccc21` [Compound 8, BBTP-Tap-(D-Arg)2-Gly-D-Arg-[D-Lys(5-TAMRA)]-NH2] showed a Gini coefficient (panel of 140 PKs) of 0.682 and a hit rate (panel of 140 PKs) of 0.066.
With “BBTP-Tap-(D-Arg)2-Gly-D-Arg-[D-Lys(Cy5)]-NH2” the “final HPLC purity” value ([1]; conjugation step, 650 nm) was 98.4%.
Molecule `N=C(N)NCCC[C@@H](NC(=O)CCCCCNCc1nc2c(sc3cc(Br)cnc32)c(=O)[nH]1)C(=O)N[C@H](CCCNC(=N)N)C(=O)N[C@H](CCCNC(=N)N)C(=O)N[C@H](CCCNC(=N)N)C(=O)N[C@H](CCCNC(=N)N)C(=O)N[C@H](CCCNC(=N)N)C(=O)N[C@H](CCCCN)C(N)=O` [ARC-3126, BPTP-Ahx-(D-Arg)6-D-Lys-NH2] (X3-[dR][dR][dR][dR][dR][dR][dK]-NH2) has a Gini coefficient (panel of 140 PKs) of 0.73 and a hit rate (panel of 140 PKs) of 0.09.
For “BBTP-Aoc-(D-Arg)2-Gly-D-Arg-[D-Lys(Cy5)]-NH2”, the “final HPLC purity” value ([1]; conjugation step, 650 nm) was 97.4%.
In the case of “BBTP-Tap-(D-Arg)2-Gly-D-Arg-[D-Lys(5-TAMRA)]-NH2”, the “final HPLC purity” value ([1]; 560 nm) is reported as 96%.
For `CN1C(=CC=CC=CC2=[N+](CCCCCC(=O)NCCCC[C@@H](NC(=O)[C@@H](CCCNC(=N)N)NC(=O)CNC(=O)[C@@H](CCCNC(=N)N)NC(=O)[C@@H](CCCNC(=N)N)NC(=O)CCCCCCCNCc3nc4c(sc5ccc(Br)cc54)c(=O)[nH]3)C(N)=O)c3ccccc3C2(C)C)C(C)(C)c2ccccc21` [Compound 6, BBTP-Aoc-(D-Arg)2-Gly-D-Arg-[D-Lys(Cy5)]-NH2], the intracellular localization (U2OS cells) was “mainly perinuclear vesicular localization”.
With “BBTP-Hyp-Aoc-(D-Arg)2-Gly-D-Arg-D-Lys-NH2” the “final HPLC purity” value ([1]; whole synthesis, 342 nm) was 97.3%.
In the case of `CN1C(=CC=CC=CC2=[N+](CCCCCC(=O)NCCCC[C@@H](NC(=O)[C@@H](CCCNC(=N)N)NC(=O)CNC(=O)[C@@H](CCCNC(=N)N)NC(=O)[C@@H](CCCNC(=N)N)NC(=O)CCCCc3cn(Cc4nc5c(sc6ccc(Br)cc65)c(=O)[nH]4)nn3)C(N)=O)c3ccccc3C2(C)C)C(C)(C)c2ccccc21` [Compound 7, BBTP-Tap-(D-Arg)2-Gly-D-Arg-[D-Lys(Cy5)]-NH2], the intracellular localization (U2OS cells) is reported as “mainly perinuclear vesicular localization”.
Work on `N=C(N)NCCC[C@@H](NC(=O)CNC(=O)[C@@H](CCCNC(=N)N)NC(=O)[C@@H](CCCNC(=N)N)NC(=O)CCCCCCCNCc1nc2c(sc3cc(Br)cnc32)c(=O)[nH]1)C(=O)N[C@H](CCCCN)C(N)=O` [Compound 1, BPTP-Aoc-(D-Arg)2-Gly-D-Arg-D-Lys-NH2] yielded a Gini coefficient (panel of 140 PKs) of 0.887 and a hit rate (panel of 140 PKs) of 0.022.
For BBTP-Tap-(D-Arg)2-Gly-D-Arg-D-Lys-NH2, the “final HPLC purity” value ([1]; whole synthesis, 342 nm) was 96.1%.
With “PEPTIDE1{[dR].[dR].G.[dR].[dK].[am]}$$$$V2.0” the “final HPLC purity” value ([1]; whole synthesis, 206 nm) was 96%.
With BPTP-Ahx-(D-Arg)6-D-Lys-NH2 the “final HPLC purity” value ([1]; whole synthesis, 307 nm) was 98.3%.
For BBTP-Aoc-(D-Arg)2-Gly-D-Arg-D-Lys-NH2, the “final HPLC purity” value ([1]; whole synthesis, 342 nm) was 97.2%.
